Data from the supplement of paper PMC8256030.
Where “and” joins values, the source holds several entries; their conditions need not be identical. Identical values can stand only once. The list shows a part of the results. This data set is noisy: repeats of one test often differ as much as different tests do.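 HEK293T cells were given each compound shortly before transfection with a reporter in which red mCherry is followed by the SARS-CoV-2 frameshift element and then GFP in the −1 frame, so GFP appears only after frameshifting.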

test system: SARS-CoV-2 -1 PRF reporter mCherry-FSE-GFP(-1); experiment: mCherry (red) intensity as percent of control; higher = higher upstream reporter expression; settings: 10 µM; 24 h; HEK293T

Row | Compound | mCherry
1 | C1CCC(C(CC2CCCCN2)C2CCCCC2)CC1 (configuration not stated) [perhexiline] | 130%
2 | C[C@H](CCC(=O)O)[C@H]1CC[C@H]2[C@@H]3CC[C@@H]4C[C@H](O)CC[C@]4(C)[C@H]3C[C@H](O)[C@]12C [Deoxycholic Acid] | 77.1%
3 | C=CC1=C(C(=O)O)N2C(=O)[C@@H](NC(=O)/C(=N\OCC(=O)O)c3csc(N)n3)[C@H]2SC1 [cefixime] | 82.6%
4 | CC=CC1=C(C(=O)O)N2C(=O)[C@@H](NC(=O)[C@H](N)c3ccc(O)cc3)[C@H]2SC1 [Cefprozil] | 103%
5 | CN(C)[C@@H]1C(=O)C(C(=O)NCN2CCCC2)=C(O)[C@@]2(O)C(=O)C3=C(O)c4c(O)cccc4[C@@](C)(O)[C@H]3C[C@@H]12 [Rolitetracycline] | 95.1%
6 | CC(CN1c2ccccc2Sc2ccccc21)N(C)C (configuration not stated) [promethazine] | 92.1% and 105%
7 | O=C(O)CCc1nc(-c2ccccc2)c(-c2ccccc2)o1 [oxaprozin] | 109%
8 | COCC1=C(C(=O)OC(C)OC(=O)OC(C)C)N2C(=O)[C@@H](NC(=O)/C(=N\OC)c3csc(N)n3)[C@H]2SC1 (some centres not stated) | 96.7%
9 | OC[C@H]1O[C@@H](c2ccc(Cl)c(Cc3ccc(O[C@H]4CCOC4)cc3)c2)[C@H](O)[C@@H](O)[C@@H]1O [Empagliflozin] | 105%
10 | Cc1cn([C@H]2C[C@H](F)[C@@H](CO)O2)c(=O)[nH]c1=O [alovudine] | 58.2%
11 | CN[C@@H]1[C@H](O[C@H]2[C@H](O[C@H]3[C@H](O)[C@@H](O)[C@H](N=C(N)N)[C@@H](O)[C@@H]3N=C(N)N)O[C@@H](C)[C@]2(O)C=O)O[C@@H](CO)[C@H](O)[C@H]1O [streptomycin] | 104%
12 | CC(=O)[C@@]1(O)[C@H](O)C[C@H]2[C@@H]3CCC4=CC(=O)CC[C@]4(C)[C@H]3CC[C@@]21C [algestone] | 90.6%
13 | CC(=O)SC[C@@H](C)C(=O)N1CCC[C@H]1C(=O)N[C@@H](Cc1ccccc1)C(=O)O [alacepril] | 84.3%
14 | COc1ccc(/C=C/C(=O)OCCC(C)C)cc1 [amiloxate] | 91.2%
15 | N#CC(c1ccc(Cl)cc1)c1c(Cl)cc(-n2ncc(=O)[nH]c2=O)cc1Cl (configuration not stated) [diclazuril] | 126%
16 | CC(=O)OCC(=O)[C@@]1(O)CC[C@H]2[C@@H]3CCC4=CC(=O)C=C[C@]4(C)[C@H]3[C@@H](O)C[C@@]21C | 123%

Row | Compound | mCherry
17 | CCN1CCN(C(=O)N[C@@H](C(=O)N[C@@H]2C(=O)N3[C@@H]2SC(C)(C)[C@@H]3C(=O)O)c2ccccc2)C(=O)C1=O [Piperacillin] | 60.7%
18 | CC(C)[C@H]1CC[C@H](C(=O)N[C@H](Cc2ccccc2)C(=O)O)CC1 | 90.1%
19 | O=c1[nH]c2ccccc2c(=O)n1CCCN1CCN(c2cccc(Cl)c2)CC1 [cloperidone] | 103%
20 | O=C(CCCN1CCC(C(=O)c2ccc(F)cc2)CC1)c1ccc(F)cc1 [lenperone] | 57.7%
21 | CC(=O)[C@@]1(O)CC[C@H]2[C@@H]3C=C(Cl)C4=CC(=O)[C@@H]5C[C@@H]5[C@]4(C)[C@H]3CC[C@@]21C [cyproterone] | 81.5%
22 | CC(C)(C)NC[C@H](O)c1ccc(O)c(CO)c1 [levosalbutamol] | 108%
23 | CC(C)[C@@H](C)/C=C/[C@@H](C)[C@H]1CC[C@H]2/C(=C/C=C3\C[C@@H](O)CC[C@@H]3C)CCC[C@]12C [Antitanil] | 99.7%
24 | O=C(O)COCCN1CCN([C@H](c2ccccc2)c2ccc(Cl)cc2)CC1 | 93.8%
25 | CN(C(=O)CCCOc1ccc2[nH]c(=O)ccc2c1)C1CCCCC1 [cilostamide] | 103%
26 | Cn1c([N+](=O)[O-])cnc1COC(N)=O [ronidazole] | 101%
27 | O=C1OC(c2ccc(O)cc2)(c2ccc(O)cc2)c2ccccc21 [phenolphthalein] | 96.7%
28 | CCCCOc1ccc(OCCCN2CCOCC2)cc1 [pramocaine] | 84.7%
29 | CC(=O)N(O)CCCCCNC(=O)CCC(=O)N(O)CCCCCNC(=O)CCC(=O)N(O)CCCCCN [deferoxamine] | 109%
30 | Nc1nc(=O)c2c([nH]1)NCC(CNc1ccc(C(=O)N[C@@H](CCC(=O)O)C(=O)O)cc1)N2C=O (some centres not stated) [Leucovorin] | 78.7%
31 | CN1CCC(Nc2ncc3ncnc(Nc4ccc(F)c(Cl)c4)c3n2)CC1 [falnidamol] | 93.4%
32 | OC(CCN1CCCCC1)(c1ccccc1)C1CCCC1 (configuration not stated) [cycrimine] | 92.2%
